In the supplement of paper PMC5355238:
Where “and” joins values, the source holds several entries; their conditions need not be identical. Equal values may be shown once. Where a name gives a salt, the structure may show the parent alone. The list shows a part of the results. Most values lie at the level of the controls, where differences are scatter.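 Using flow cytometry, the assay measures the median γH2AX antibody signal in S-phase Reh cells (a human leukemia line). Each score is the number of standard deviations from the median difference of paired plate sets. Candidate hits scored above 2.5; compounds scoring below -2 lowered MK1775-induced damage.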

Each molecule was assayed on Reh (assay: Z' of S-phase gammaH2AX difference (drug + MK1775 minus drug alone) (Z-score); higher = stronger synergistic S-phase DNA damage with MK1775). Settings: MK1775 concentration 400 nM; first compound 10 µM; 4 h.

Row | SMILES | Z' of S-phase gammaH2AX difference (Z-score)
1 | O=C(O)CCCCCCCC(=O)O [Azelaic acid] + C=CCn1c(=O)c2cnc(Nc3ccc(N4CCN(C)CC4)cc3)nc2n1-c1cccc(C(C)(C)O)n1 [MK1775] | inactive: -0.0535
2 | CC(=Cc1ccc(C(=O)O)cc1)c1ccc2c(c1)C(C)(C)CCC2(C)C + C=CCn1c(=O)c2cnc(Nc3ccc(N4CCN(C)CC4)cc3)nc2n1-c1cccc(C(C)(C)O)n1 [MK1775] | inactive: -0.498
3 | C=CC(N)CCC(=O)O (stereo unspecified) [(?)-gamma-Vinyl GABA] + C=CCn1c(=O)c2cnc(Nc3ccc(N4CCN(C)CC4)cc3)nc2n1-c1cccc(C(C)(C)O)n1 [MK1775] | inactive: -1.37
4 | CC(C)(C)c1cnc(CSc2cnc(NC(=O)C3CCNCC3)s2)o1 + C=CCn1c(=O)c2cnc(Nc3ccc(N4CCN(C)CC4)cc3)nc2n1-c1cccc(C(C)(C)O)n1 [MK1775] | inactive: -1.28
5 | CC(=O)S[C@@H]1CC2=CC(=O)CC[C@]2(C)[C@H]2CC[C@@]3(C)[C@@H](CC[C@@]34CCC(=O)O4)[C@H]12 [Spironolactone] + C=CCn1c(=O)c2cnc(Nc3ccc(N4CCN(C)CC4)cc3)nc2n1-c1cccc(C(C)(C)O)n1 [MK1775] | inactive: -0.0466
6 | C#Cc1cccc(Nc2ncnc3cc(OC)c(OCCCCCCC(=O)NO)cc23)c1 + C=CCn1c(=O)c2cnc(Nc3ccc(N4CCN(C)CC4)cc3)nc2n1-c1cccc(C(C)(C)O)n1 [MK1775] | inactive: 0.119
7 | NC1(C(=O)O)CCCCC1 [1-Amino-1-cyclohexanecarboxylic acid hydrochloride] + C=CCn1c(=O)c2cnc(Nc3ccc(N4CCN(C)CC4)cc3)nc2n1-c1cccc(C(C)(C)O)n1 [MK1775] | inactive: 0.0434
8 | NNCCc1ccccc1 [Phenelzine sulfate] + C=CCn1c(=O)c2cnc(Nc3ccc(N4CCN(C)CC4)cc3)nc2n1-c1cccc(C(C)(C)O)n1 [MK1775] | inactive: 0.252
9 | CC(C)(C=O)Cc1cc(C(C)(C)C)c(O)c(C(C)(C)C)c1 + C=CCn1c(=O)c2cnc(Nc3ccc(N4CCN(C)CC4)cc3)nc2n1-c1cccc(C(C)(C)O)n1 [MK1775] | inactive: 0.0668
10 | CN1CCN(CC/C=C2/c3ccccc3Sc3ccc(S(=O)(=O)N(C)C)cc32)CC1 [Thiothixene hydrochloride] + C=CCn1c(=O)c2cnc(Nc3ccc(N4CCN(C)CC4)cc3)nc2n1-c1cccc(C(C)(C)O)n1 [MK1775] | inactive: 0.382
11 | NCC(O)C1CCCCCCC1 (stereo unspecified) [2-Cyclooctyl-2-hydroxyethylamine hydrochloride] + C=CCn1c(=O)c2cnc(Nc3ccc(N4CCN(C)CC4)cc3)nc2n1-c1cccc(C(C)(C)O)n1 [MK1775] | inactive: 1.17
12 | CN1CCC(=C2c3ccccc3C=Cc3ccccc32)CC1 [Cyproheptadine hydrochloride] + C=CCn1c(=O)c2cnc(Nc3ccc(N4CCN(C)CC4)cc3)nc2n1-c1cccc(C(C)(C)O)n1 [MK1775] | inactive: 0.277
13 | CCCNC[C@H](O)COc1ccccc1C(=O)CCc1ccccc1 [(S)-(-)-propafenone hydrochloride] + C=CCn1c(=O)c2cnc(Nc3ccc(N4CCN(C)CC4)cc3)nc2n1-c1cccc(C(C)(C)O)n1 [MK1775] | inactive: -0.107
14 | N#Cc1c(-c2ccccc2)no[n+]1[O-] [4-Phenyl-3-furoxancarbonitrile] + C=CCn1c(=O)c2cnc(Nc3ccc(N4CCN(C)CC4)cc3)nc2n1-c1cccc(C(C)(C)O)n1 [MK1775] | inactive: -0.141
15 | CCn1c(=O)c2[nH]c(-c3ccccc3)nc2n(CC)c1=O [1,3-Diethyl-8-phenylxanthine] + C=CCn1c(=O)c2cnc(Nc3ccc(N4CCN(C)CC4)cc3)nc2n1-c1cccc(C(C)(C)O)n1 [MK1775] | inactive: 0.0134
16 | NCCC[C@](N)(C(=O)O)C(F)F (racemic) [DL-alpha-Difluoromethylornithine hydrochloride] + C=CCn1c(=O)c2cnc(Nc3ccc(N4CCN(C)CC4)cc3)nc2n1-c1cccc(C(C)(C)O)n1 [MK1775] | inactive: 1.11
17 | N#Cc1ccc(C(c2ccc(C#N)cc2)n2cncn2)cc1 [Letrozole] + C=CCn1c(=O)c2cnc(Nc3ccc(N4CCN(C)CC4)cc3)nc2n1-c1cccc(C(C)(C)O)n1 [MK1775] | inactive: 0.104
18 | CN1CCN(C2=Nc3ccccc3Oc3ccc(Cl)cc32)CC1 [Loxapine succinate] + C=CCn1c(=O)c2cnc(Nc3ccc(N4CCN(C)CC4)cc3)nc2n1-c1cccc(C(C)(C)O)n1 [MK1775] | inactive: -0.403

Quoted at random: 3 records from the list.
Row | SMILES | Z' of S-phase gammaH2AX difference (Z-score)
15 | CCn1c(=O)c2[nH]c(-c3ccccc3)nc2n(CC)c1=O [1,3-Diethyl-8-phenylxanthine] + C=CCn1c(=O)c2cnc(Nc3ccc(N4CCN(C)CC4)cc3)nc2n1-c1cccc(C(C)(C)O)n1 [MK1775] | inactive: 0.0134
18 | CN1CCN(C2=Nc3ccccc3Oc3ccc(Cl)cc32)CC1 [Loxapine succinate] + C=CCn1c(=O)c2cnc(Nc3ccc(N4CCN(C)CC4)cc3)nc2n1-c1cccc(C(C)(C)O)n1 [MK1775] | inactive: -0.403
1 | O=C(O)CCCCCCCC(=O)O [Azelaic acid] + C=CCn1c(=O)c2cnc(Nc3ccc(N4CCN(C)CC4)cc3)nc2n1-c1cccc(C(C)(C)O)n1 [MK1775] | inactive: -0.0535

(list continues)

Row | SMILES | Z' of S-phase gammaH2AX difference (Z-score)
19 | C[N+]1(C)CCC(OC(=O)C(c2ccccc2)c2ccccc2)CC1 [4-DAMP methiodide] + C=CCn1c(=O)c2cnc(Nc3ccc(N4CCN(C)CC4)cc3)nc2n1-c1cccc(C(C)(C)O)n1 [MK1775] | inactive: 0.051
20 | CCN(CC)CCOC(=O)C1(C2CCCCC2)CCCCC1 [Dicyclomine hydrochloride] + C=CCn1c(=O)c2cnc(Nc3ccc(N4CCN(C)CC4)cc3)nc2n1-c1cccc(C(C)(C)O)n1 [MK1775] | inactive: 1.02
21 | CC(N/C(=N\C#N)Nc1ccncc1)C(C)(C)C (stereo unspecified) [Pinacidil] + C=CCn1c(=O)c2cnc(Nc3ccc(N4CCN(C)CC4)cc3)nc2n1-c1cccc(C(C)(C)O)n1 [MK1775] | inactive: -0.0825
22 | CN(C)CCCN1c2ccccc2Sc2ccc(C(F)(F)F)cc21 [Triflupromazine hydrochloride] + C=CCn1c(=O)c2cnc(Nc3ccc(N4CCN(C)CC4)cc3)nc2n1-c1cccc(C(C)(C)O)n1 [MK1775] | inactive: 1.25
23 | COc1ccc2c(c1)CCC1C2CCC2(C)C(NCCCCCCN3C(=O)C=CC3=O)CCC12 (stereo unspecified) + C=CCn1c(=O)c2cnc(Nc3ccc(N4CCN(C)CC4)cc3)nc2n1-c1cccc(C(C)(C)O)n1 [MK1775] | inactive: 0.669 and inactive: -0.906
24 | COC(=O)C1=C(C)NC(C)=C([N+](=O)[O-])C1c1ccccc1C(F)(F)F (stereo unspecified) + C=CCn1c(=O)c2cnc(Nc3ccc(N4CCN(C)CC4)cc3)nc2n1-c1cccc(C(C)(C)O)n1 [MK1775] | inactive: 0.281
25 | COc1cc(C(=O)OCCCN2CCCN(CCCOC(=O)c3cc(OC)c(OC)c(OC)c3)CC2)cc(OC)c1OC [Dilazep hydrochloride] + C=CCn1c(=O)c2cnc(Nc3ccc(N4CCN(C)CC4)cc3)nc2n1-c1cccc(C(C)(C)O)n1 [MK1775] | inactive: -0.279
26 | COc1ccc(-c2ccc3c(N4CCOC[C@@H]4C)nc(N4CCOC[C@@H]4C)nc3n2)cc1CO + C=CCn1c(=O)c2cnc(Nc3ccc(N4CCN(C)CC4)cc3)nc2n1-c1cccc(C(C)(C)O)n1 [MK1775] | inactive: -0.353
27 | N=C(NC(=O)c1nc(Cl)c(N)nc1N)Nc1ccccc1 [Phenamil methanesulfonate] + C=CCn1c(=O)c2cnc(Nc3ccc(N4CCN(C)CC4)cc3)nc2n1-c1cccc(C(C)(C)O)n1 [MK1775] | inactive: 0.767
28 | C#CC(N)CCC(=O)O (stereo unspecified) [gamma-Acetylinic GABA] + C=CCn1c(=O)c2cnc(Nc3ccc(N4CCN(C)CC4)cc3)nc2n1-c1cccc(C(C)(C)O)n1 [MK1775] | inactive: -0.658
29 | Nc1cc(Cl)c(NC2=NCCN2)c(Cl)c1 [p-Aminoclonidine hydrochloride] + C=CCn1c(=O)c2cnc(Nc3ccc(N4CCN(C)CC4)cc3)nc2n1-c1cccc(C(C)(C)O)n1 [MK1775] | inactive: 0.0267
30 | NO [Hydroxylamine hydrochloride] + C=CCn1c(=O)c2cnc(Nc3ccc(N4CCN(C)CC4)cc3)nc2n1-c1cccc(C(C)(C)O)n1 [MK1775] | inactive: -1.06
31 | O=c1[nH]c2ccccc2n1CCCN1CCN(C(c2ccccc2)c2ccccc2)CC1 [Oxatomide] + C=CCn1c(=O)c2cnc(Nc3ccc(N4CCN(C)CC4)cc3)nc2n1-c1cccc(C(C)(C)O)n1 [MK1775] | inactive: -0.252
32 | Nc1nc(Cl)nc2c1ncn2[C@@H]1O[C@H](CO)[C@@H](O)[C@H]1O [2-Chloroadenosine] + C=CCn1c(=O)c2cnc(Nc3ccc(N4CCN(C)CC4)cc3)nc2n1-c1cccc(C(C)(C)O)n1 [MK1775] | inactive: 0.628
33 | Cc1ccc(F)c(NC(=O)Nc2ccc(-c3cccc4[nH]nc(N)c34)cc2)c1 [Linifanib (ABT-869)] + C=CCn1c(=O)c2cnc(Nc3ccc(N4CCN(C)CC4)cc3)nc2n1-c1cccc(C(C)(C)O)n1 [MK1775] | inactive: -0.947
34 | CC(C)OC(=O)C1=CN(C(=O)c2ccc(F)c(F)c2)CC(C)(C)c2c1[nH]c1ccccc21 + C=CCn1c(=O)c2cnc(Nc3ccc(N4CCN(C)CC4)cc3)nc2n1-c1cccc(C(C)(C)O)n1 [MK1775] | inactive: 0.458
35 | CC[C@H](CO)Nc1nc(NCc2ccccc2)c2ncn(C(C)C)c2n1 [Roscovitine] + C=CCn1c(=O)c2cnc(Nc3ccc(N4CCN(C)CC4)cc3)nc2n1-c1cccc(C(C)(C)O)n1 [MK1775] | inactive: -2.39
36 | CC[C@H](CO)Nc1nc(NCc2ccccc2)c2ncn(C(C)C)c2n1 [Roscovitine (Seliciclib, CYC202)] + C=CCn1c(=O)c2cnc(Nc3ccc(N4CCN(C)CC4)cc3)nc2n1-c1cccc(C(C)(C)O)n1 [MK1775] | inactive: -0.743
